Data source: PubChem BioAssay AID504784 (Drosophila RNAi Screening Center, 2011)
The deposit covers about 17,000 reagents; this is a random part of those that have a named target and a result. 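Each column is one replicate's B-score; the combined score over replicates was not deposited, so single values may mislead.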 A plus sign joins genes that one reagent is predicted to hit. Not all columns of the deposit are shown.

Test: 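Fly genes whose silencing alters how much lipid cells keep in droplets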 (primary screen)
Cells: Drosophila Kc167 embryonic cells
Reagent: long dsRNA against Drosophila genes, about 250 ng dsRNA per well
Duration: 4 days
Treatment: cells fed 400 µM oleic acid bound to BSA
Read-out: 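Cells imaged and segmented; ratio of lipid droplet area to nuclear area, log-transformed, then normalised as a B-score over the screen; higher means more stored lipid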
Direction: droplet/nuclear area B-score: higher = more stored lipid (overstorage)

droplet/nuclear area B-score, replicate 1, by predicted target and reagent
CR16735 (pseudo): DRSC15144 -0.641
Hmbs (Hydroxymethylbilane synthase): DRSC08632 -0.0712
CG14609: DRSC12553 1.51
CG46441: DRSC15561 0.824
CG14120: DRSC10124 0.826
CG32452: DRSC11581 0.112; DRSC22250 -0.486
CIAPIN1 (Cytokine induced apoptosis inhibitor 1): DRSC03559 0.504
Glut1 (Glucose transporter 1): DRSC07927 1.61; DRSC08662 0.147
CG13004: DRSC19523 -0.242
CG33958: DRSC06472 -3.03; DRSC06944 -1.6
Ubc6 (Ubiquitin conjugating enzyme 6): DRSC12370 -2.94
Rcd-1 (Required for cell differentiation 1): DRSC19569 -0.0329
Cbl (Cbl proto-oncogene): DRSC10764 0.178; DRSC11111 -0.618
CG14720: DRSC14942 -0.837
GstE7 (Glutathione S transferase E7): DRSC06677 0.138
RhoGAP71E (Rho GTPase activating protein at 71E): DRSC10232 0.184; DRSC10837 -1.32; DRSC10838 -0.908
gammaSnap1 (gamma Soluble NSF attachment protein 1): DRSC04686 0.159
lncRNA:Hsromega (Heat shock RNA omega): DRSC22875 -0.674
CG5339: DRSC04496 -0.718
ZC3H3: DRSC10696 1.53
Scgbeta (Sarcoglycan beta): DRSC15854 0.847
CG8132: DRSC16383 -0.109
CG9254: DRSC01969 -0.27
Spn28Dc (Serpin 28Dc): DRSC03029 2.94
CG12010: DRSC08218 -0.3
Nna1 (Nna1 carboxypeptidase): DRSC19404 0.687
CG3008: DRSC00560 -0.396
Spn77Ba (Serpin 77Ba): DRSC10693 1.1
Orai: DRSC22061 -0.296
Ir85a (Ionotropic receptor 85a): DRSC14382 -0.799
CG13138: DRSC02235 -0.0166

Copied from the listing, 6 entries:
droplet/nuclear area B-score, replicate 1, by predicted target and reagent
Cbl (Cbl proto-oncogene): DRSC11111 -0.618
CG14720: DRSC14942 -0.837
GstE7 (Glutathione S transferase E7): DRSC06677 0.138
RhoGAP71E (Rho GTPase activating protein at 71E): DRSC10232 0.184; DRSC10837 -1.32; DRSC10838 -0.908

Additional records follow:
droplet/nuclear area B-score, replicate 1, by predicted target and reagent
tth (toothrin): DRSC19435 2.56
Apc2 (Adenomatous polyposis coli 2): DRSC14115 0.321
Hesr (HES-related): DRSC19965 -0.223
CG6972: DRSC16159 -2.6
CG4270: DRSC00648 -0.205
osp (outspread): DRSC01409 -0.0954; DRSC03585 -1.94
l(2)k14505 (lethal (2) k14505): DRSC03106 -1.07
EAChm (Enhancer of Acetyltransferase Chameau): DRSC10010 -1.89
CG17068: DRSC20545 -0.334
Sirt4 (Sirtuin 4): DRSC18290 1.79
su(f) (suppressor of forked): DRSC20907 -1.2
Tim8: DRSC20291 0.298
Cyp6a15Psi (pseudo): DRSC07377 0.143
CG14258: DRSC14753 0.312
Zaf1 (ZAD and Architectural Function 1): DRSC16121 0.175
CG12376: DRSC06144 0.627
CG13063: DRSC09946 -1.66
PGRP-LD + Pmi: DRSC10512 -1.93; DRSC10513 -0.573
CG5810: DRSC15880 -0.569; DRSC21921 -0.779
CG31525: DRSC12004 -0.0281
Galphaq (G protein alpha subunit q): DRSC07432 -0.282
CG31975 + ovm: DRSC00323 -1.25
IleRS (Isoleucyl-tRNA synthetase): DRSC11667 -0.303
CG5793: DRSC15874 0.00677
Cpr47Ed (Cuticular protein 47Ed): DRSC07331 -2.29
lds (lodestar): DRSC16988 -1.75
CG5969: DRSC11789 -1.6
CG14221: DRSC19578 0.348
wun2 (wunen-2): DRSC07566 -0.058
Pde8 (Phosphodiesterase 8): DRSC04503 -0.0293
hoka: DRSC08313 -2.05
PGAP3 (Post-GPI attachment to proteins 3): DRSC04989 -0.432
CG9743: DRSC16552 1.72
CG8067: DRSC07065 -2.75
CG14464: DRSC07760 -0.742
CG31231: DRSC13308 -0.209
CG33127: DRSC00011 -0.118
CG18635: DRSC06780 0.97
Tdg (Thymine DNA glycosylase): DRSC17119 0.689; DRSC17169 -1.19
GlnRS (Glutaminyl-tRNA synthetase): DRSC14140 1.26
p47: DRSC06046 -1.28
CG10254: DRSC14153 0.352
